Experimental data published in patent publication US10371707B1, “System and methods for bilirubin analysis” (Neolight LLC, priority 2017, dated 2019).
For at least one compound, name, drawing or mass did not settle the structure.

The chains behind the UniProt entries cited, without tags or fusion partners. Residues count along the entry.
UniProt P02768, 25-609: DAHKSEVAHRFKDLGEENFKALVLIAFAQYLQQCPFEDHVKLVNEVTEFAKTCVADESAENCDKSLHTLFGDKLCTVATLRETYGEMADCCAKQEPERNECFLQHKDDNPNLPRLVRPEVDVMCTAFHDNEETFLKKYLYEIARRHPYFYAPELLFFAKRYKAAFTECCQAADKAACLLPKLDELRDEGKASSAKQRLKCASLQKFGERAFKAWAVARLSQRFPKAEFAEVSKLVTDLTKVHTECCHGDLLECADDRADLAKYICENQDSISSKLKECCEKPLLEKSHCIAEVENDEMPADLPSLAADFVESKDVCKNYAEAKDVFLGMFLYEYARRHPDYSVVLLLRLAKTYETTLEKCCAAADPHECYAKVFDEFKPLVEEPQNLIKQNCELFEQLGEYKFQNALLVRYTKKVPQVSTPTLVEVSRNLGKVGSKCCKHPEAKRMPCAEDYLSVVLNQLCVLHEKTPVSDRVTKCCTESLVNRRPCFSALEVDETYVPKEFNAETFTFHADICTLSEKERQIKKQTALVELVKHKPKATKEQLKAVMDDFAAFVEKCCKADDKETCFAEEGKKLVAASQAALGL

What was measured:
[1] = Cyclic voltammetry, direct electro-oxidation on screen-printed carbon electrodes; format: physicochemical
Procedure: (§1) All electrochemical experiments were performed on screen-printed carbon electrodes with an Ag/AgCl reference electrode in a 3-electrode mode of operation. Cyclic Voltammetry parameters were controlled via a computational program; scan rate: 0.1 V/s, start potential: −0.5V, switch potential: 0.9V, end potential: −0.5V.
(§2) Deionized water (resistivity 18.2MΩ cm) was used in the preparation of solutions. Bilirubin was dissolved in 0.05M sodium hydroxide to prepare 1 mM stock and gently vortexed till homogenously mixed. This stock solution was then diluted using 0.05 M Tris-HCl (pH 8.5) to the desired working concentration. […] Bromophenol blue was prepared in 0.05M Tris-HCl (pH 8.5). Conjugated bilirubin was dissolved in 0.05M Tris-HCl (pH 8.5) and mixed till homogenous. All tubes containing bilirubin were protected from light.
Regarding the detection of unbound unconjugated bilirubin, it was diluted to a physiologically relevant concentration (100 μM) and analyzed by cyclic voltammetry.

[2] = target: T1, Human serum albumin (Homo sapiens, UniProt P02768); assay: Binding to albumin and displacement of bilirubin by bromophenol blue, assessed by cyclic voltammetry; settings: mixed with albumin
T1 construct: purchased Sigma Aldrich, UK
Procedure: as §1, §2
Surfactants, caffeine, sodium benzoate and fatty acids are common solubilizing agents.
As with unconjugated bilirubin, bromophenol blue was used a competitive binding ligand for the displacement of conjugated bilirubin.

C=CC1=C(C)/C(=C/c2[nH]c(Cc3[nH]c(/C=C4\NC(=O)C(C)=C4C=C)c(C)c3CCC(=O)O)c(CCC(=O)O)c2C)NC1=O [unconjugated bilirubin, Bilirubin (mixed isomers)]
reversibility of oxidation (cathodic peak) ([1]; 100 μM, cyclic voltammetry): irreversible oxidation | secondary anodic peak ([1]; cyclic voltammetry, same set-up, for unconjugated bilirubin distinct at 50 μM and higher): 0.3 V | anodic peak Epa ([1]; first/characteristic anodic peak, carbon electrodes, Ag/AgCl reference, scan rate 0.1 V/s, 0.05M Tris-HCl pH 8.5): 0.15 V | effect of binding to albumin on electrochemical oxidation of the ligand [2]: inhibited the direct electrochemical oxidation
